Data: paper PMC6406679
These are yes or no findings as the source states them, for the method shown. Binding seen in cells or lysates may run through a third protein. A yes stands for co-enrichment or nearness to the bait. Other partners may have been found.

Sequences of proteins named here, by UniProt entry; tags and fusion partners are left off.
UniProt Q96RU7: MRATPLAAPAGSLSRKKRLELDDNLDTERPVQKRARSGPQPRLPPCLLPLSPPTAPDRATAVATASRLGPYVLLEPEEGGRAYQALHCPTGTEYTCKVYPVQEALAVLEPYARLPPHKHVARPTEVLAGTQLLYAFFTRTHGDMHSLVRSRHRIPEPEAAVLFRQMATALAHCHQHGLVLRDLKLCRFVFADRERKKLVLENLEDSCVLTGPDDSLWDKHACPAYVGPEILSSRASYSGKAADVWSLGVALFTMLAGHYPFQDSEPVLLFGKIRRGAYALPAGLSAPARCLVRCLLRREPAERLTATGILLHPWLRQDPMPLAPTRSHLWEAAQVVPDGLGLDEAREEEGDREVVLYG
UniProt Q9NYF8: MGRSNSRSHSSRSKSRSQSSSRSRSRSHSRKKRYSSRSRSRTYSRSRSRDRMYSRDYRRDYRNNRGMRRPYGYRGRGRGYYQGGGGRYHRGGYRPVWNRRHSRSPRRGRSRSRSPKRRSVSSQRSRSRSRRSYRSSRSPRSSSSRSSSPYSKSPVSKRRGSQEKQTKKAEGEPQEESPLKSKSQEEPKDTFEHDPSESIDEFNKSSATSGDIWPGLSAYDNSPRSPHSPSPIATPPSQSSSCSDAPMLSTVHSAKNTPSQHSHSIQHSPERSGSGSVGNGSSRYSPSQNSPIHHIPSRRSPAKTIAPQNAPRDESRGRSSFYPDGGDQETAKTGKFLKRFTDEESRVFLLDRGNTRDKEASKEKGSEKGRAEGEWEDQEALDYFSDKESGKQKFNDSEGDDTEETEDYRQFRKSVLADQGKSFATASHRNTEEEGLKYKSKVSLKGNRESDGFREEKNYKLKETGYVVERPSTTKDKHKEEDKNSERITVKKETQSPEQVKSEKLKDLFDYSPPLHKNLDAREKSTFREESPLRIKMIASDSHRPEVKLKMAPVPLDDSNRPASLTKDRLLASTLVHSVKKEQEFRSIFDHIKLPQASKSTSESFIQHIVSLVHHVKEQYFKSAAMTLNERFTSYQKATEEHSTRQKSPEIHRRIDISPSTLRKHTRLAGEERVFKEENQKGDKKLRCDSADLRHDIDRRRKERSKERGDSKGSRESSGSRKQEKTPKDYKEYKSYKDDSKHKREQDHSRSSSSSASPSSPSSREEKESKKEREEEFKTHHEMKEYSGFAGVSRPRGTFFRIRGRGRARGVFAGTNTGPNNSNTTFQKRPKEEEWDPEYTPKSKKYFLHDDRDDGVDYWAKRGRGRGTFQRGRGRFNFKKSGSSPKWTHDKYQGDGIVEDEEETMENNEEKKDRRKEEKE
UniProt O43143: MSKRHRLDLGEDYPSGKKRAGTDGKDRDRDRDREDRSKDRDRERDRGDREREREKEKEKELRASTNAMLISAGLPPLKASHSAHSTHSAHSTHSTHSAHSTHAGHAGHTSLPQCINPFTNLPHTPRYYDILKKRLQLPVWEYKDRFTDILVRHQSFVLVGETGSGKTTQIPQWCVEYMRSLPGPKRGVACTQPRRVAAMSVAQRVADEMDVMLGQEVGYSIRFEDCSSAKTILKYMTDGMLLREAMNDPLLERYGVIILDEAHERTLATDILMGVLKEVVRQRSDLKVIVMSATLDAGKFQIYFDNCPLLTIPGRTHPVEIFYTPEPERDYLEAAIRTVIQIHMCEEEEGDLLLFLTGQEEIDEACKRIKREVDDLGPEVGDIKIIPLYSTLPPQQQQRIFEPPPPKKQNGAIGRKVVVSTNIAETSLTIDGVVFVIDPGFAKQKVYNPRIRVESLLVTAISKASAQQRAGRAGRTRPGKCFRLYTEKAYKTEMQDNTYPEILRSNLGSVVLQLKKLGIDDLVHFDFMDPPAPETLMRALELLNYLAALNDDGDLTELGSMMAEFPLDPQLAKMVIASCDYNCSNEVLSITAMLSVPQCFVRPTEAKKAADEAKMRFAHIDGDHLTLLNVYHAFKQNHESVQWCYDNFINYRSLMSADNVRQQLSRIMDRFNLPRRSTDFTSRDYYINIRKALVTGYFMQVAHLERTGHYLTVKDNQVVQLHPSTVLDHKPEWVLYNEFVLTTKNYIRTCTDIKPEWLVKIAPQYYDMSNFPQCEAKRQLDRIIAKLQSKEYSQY
UniProt Q92841: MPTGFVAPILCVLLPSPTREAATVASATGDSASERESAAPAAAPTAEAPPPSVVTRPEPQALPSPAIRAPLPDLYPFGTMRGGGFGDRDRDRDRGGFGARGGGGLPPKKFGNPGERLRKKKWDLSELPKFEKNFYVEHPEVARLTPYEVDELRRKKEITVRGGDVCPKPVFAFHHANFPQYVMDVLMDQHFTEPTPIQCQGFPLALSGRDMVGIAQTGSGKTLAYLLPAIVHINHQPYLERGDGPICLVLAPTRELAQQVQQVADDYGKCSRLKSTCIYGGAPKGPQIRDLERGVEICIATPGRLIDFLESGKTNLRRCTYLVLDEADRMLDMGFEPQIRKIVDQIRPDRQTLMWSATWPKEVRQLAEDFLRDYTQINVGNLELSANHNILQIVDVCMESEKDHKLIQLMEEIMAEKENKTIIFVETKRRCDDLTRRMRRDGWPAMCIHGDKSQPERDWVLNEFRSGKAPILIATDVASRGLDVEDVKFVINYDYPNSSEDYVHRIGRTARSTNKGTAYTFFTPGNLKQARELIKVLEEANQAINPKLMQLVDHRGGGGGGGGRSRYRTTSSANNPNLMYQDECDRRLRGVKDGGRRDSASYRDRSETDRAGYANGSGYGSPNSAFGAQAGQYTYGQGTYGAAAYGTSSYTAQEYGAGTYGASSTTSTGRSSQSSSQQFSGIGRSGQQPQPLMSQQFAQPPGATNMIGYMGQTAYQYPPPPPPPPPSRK
UniProt Q9NR30: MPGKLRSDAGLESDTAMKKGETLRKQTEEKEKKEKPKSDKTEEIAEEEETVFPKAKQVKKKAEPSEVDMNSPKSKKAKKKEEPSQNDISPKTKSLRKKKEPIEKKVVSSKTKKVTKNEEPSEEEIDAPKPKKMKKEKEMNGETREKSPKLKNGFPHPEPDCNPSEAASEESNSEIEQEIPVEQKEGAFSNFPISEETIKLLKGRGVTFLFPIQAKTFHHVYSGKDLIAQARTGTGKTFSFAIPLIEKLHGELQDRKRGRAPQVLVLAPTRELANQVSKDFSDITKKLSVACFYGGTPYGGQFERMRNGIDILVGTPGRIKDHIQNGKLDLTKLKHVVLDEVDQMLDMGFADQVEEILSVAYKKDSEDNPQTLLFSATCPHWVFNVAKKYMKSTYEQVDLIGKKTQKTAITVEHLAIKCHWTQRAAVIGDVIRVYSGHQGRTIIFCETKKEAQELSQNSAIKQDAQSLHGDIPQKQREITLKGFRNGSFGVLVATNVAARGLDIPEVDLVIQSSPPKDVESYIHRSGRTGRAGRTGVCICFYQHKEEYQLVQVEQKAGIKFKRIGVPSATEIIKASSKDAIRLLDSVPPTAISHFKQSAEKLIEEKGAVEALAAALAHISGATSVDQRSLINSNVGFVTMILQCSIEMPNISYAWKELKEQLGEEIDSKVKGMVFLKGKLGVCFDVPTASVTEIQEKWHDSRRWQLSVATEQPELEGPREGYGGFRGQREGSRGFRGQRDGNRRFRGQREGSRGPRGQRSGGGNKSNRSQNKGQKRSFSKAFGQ

Target: Tribbles homolog 3 (TRIB3) (human (endogenous in MDA-MB-231)) (UniProt Q96RU7)
Test: affinity purification with mass spectrometry; 1 ug anti-TRIB3 antibody with 1 mg total protein from MDA-MB-231 cells and the radioresistant sub-line, 4 C overnight, Protein A magnetic beads; SDS-PAGE, in-gel digestion, LTQ-FTICR MS, label-free quantification

Row | Molecule | binding
1 | BCL2-associated transcription factor 1 (BCLAF1) (from UniProt Q9NYF8 1-920) | binds
2 | DDX15 (from UniProt O43143 1-795) | binds
3 | DDX17 (from UniProt Q92841 1-729) | binds
4 | DDX21 (from UniProt Q9NR30 1-783) | binds
5 | BCL2 interacting protein 1 (BNIP1) (protein, UniProt Q12981 1-228) MAAPQDVHVRICNQEIVKFDLEVKALIQDIRDCSGPLSALTELNTKVKEKFQQLRHRIQDLEQLAKEQDKESEKQLLLQEVENHKKQMLSNQASWRKANLTCKIAIDNLEKAELLQGGDLLRQRKTTKESLAQTSSTITESLMGISRMMAQQVQQSEEAMQSLVTSSRTILDANEEFKSMSGTIQLGRKLITKYNRRELTDKLLIFLALALFLATVLYIVKKRLFPFL | binds
